Data on two substances can be found in paper PMC6991651.

Chains of the proteins cited; added tags and fusions are not shown.
UniProt P45974: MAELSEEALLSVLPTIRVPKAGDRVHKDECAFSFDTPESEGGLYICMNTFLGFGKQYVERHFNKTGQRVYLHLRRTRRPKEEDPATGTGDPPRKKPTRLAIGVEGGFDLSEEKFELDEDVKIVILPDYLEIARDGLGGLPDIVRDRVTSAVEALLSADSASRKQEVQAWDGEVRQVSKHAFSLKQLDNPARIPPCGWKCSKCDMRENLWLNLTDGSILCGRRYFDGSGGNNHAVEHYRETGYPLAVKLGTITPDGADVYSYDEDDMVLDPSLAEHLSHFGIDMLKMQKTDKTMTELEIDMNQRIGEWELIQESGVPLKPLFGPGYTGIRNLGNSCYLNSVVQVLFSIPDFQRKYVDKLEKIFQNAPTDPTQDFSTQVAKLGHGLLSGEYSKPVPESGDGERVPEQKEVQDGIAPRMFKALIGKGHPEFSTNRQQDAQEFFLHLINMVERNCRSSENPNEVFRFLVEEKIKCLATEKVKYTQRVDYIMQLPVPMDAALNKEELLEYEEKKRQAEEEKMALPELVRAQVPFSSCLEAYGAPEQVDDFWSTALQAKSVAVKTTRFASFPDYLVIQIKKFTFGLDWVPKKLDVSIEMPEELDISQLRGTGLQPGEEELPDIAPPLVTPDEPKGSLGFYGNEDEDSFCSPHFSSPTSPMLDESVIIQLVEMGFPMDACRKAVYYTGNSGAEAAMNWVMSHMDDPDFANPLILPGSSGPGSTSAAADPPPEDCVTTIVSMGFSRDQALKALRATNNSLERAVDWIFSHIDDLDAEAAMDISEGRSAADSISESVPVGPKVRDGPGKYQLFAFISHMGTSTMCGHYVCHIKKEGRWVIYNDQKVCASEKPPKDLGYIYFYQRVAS

Test [1] deals with Wilm's tumour-1 (WT1) (human (endogenous in PANC-1)) (UniProt P19544). Put plainly: co-IP; PANC-1 lysates immunoprecipitated with anti-WT1 or anti-USP5 antibody (non-specific IgG as control); WT1 and USP5 blotted in the precipitates; endogenous proteins.
Test [2] deals with USP5 (human (endogenous in PANC-1)) (UniProt P45974). The description is as above.

Results are given in words; binding and its absence hold for the method and conditions named. Binding seen in cells or lysates may run through a third protein. Some binding calls cover weakened binding; strength is not graded here.

“USP5 (from UniProt P45974 1-858) (enzyme)”: in test [1], the binding result was “binds”.

In the case of “Wilm's tumour-1 (WT1) (from UniProt P19544 1-449)”, the binding result in test [2] is on record as “binds”.
